These are yes or no findings as the source states them, for the method shown. Binding seen in cells or lysates may run through a third protein. Some binding calls cover weakened binding; strength is not graded here.
How the values were obtained:
[1] = molecular target: mouse EphA2 (primary keratinocytes) (mouse) (UniProt Q03145); assay: pull-down from mouse keratinocyte lysates
[2] = molecular target: mouse EphA2 (primary keratinocytes) (mouse) (UniProt Q03145); assay: pull-down from mouse keratinocyte lysates, blot for total EphA2
[3] = molecular target: EphA2 receptor of human cancer cells (PC-3, DU-145, lung cancer lines) (human) (UniProt P29317); assay: pull-down from PC3 cell lysates with ephrinA1-Fc, anti-EphA2 blot

By UniProt entry, the sequences of proteins in these tests, tags left out. Where a name states a change or a piece, a line headed by the entry shows the natural chain unless it says otherwise. Residues count along the entry.
UniProt Q03145, residues 26-977: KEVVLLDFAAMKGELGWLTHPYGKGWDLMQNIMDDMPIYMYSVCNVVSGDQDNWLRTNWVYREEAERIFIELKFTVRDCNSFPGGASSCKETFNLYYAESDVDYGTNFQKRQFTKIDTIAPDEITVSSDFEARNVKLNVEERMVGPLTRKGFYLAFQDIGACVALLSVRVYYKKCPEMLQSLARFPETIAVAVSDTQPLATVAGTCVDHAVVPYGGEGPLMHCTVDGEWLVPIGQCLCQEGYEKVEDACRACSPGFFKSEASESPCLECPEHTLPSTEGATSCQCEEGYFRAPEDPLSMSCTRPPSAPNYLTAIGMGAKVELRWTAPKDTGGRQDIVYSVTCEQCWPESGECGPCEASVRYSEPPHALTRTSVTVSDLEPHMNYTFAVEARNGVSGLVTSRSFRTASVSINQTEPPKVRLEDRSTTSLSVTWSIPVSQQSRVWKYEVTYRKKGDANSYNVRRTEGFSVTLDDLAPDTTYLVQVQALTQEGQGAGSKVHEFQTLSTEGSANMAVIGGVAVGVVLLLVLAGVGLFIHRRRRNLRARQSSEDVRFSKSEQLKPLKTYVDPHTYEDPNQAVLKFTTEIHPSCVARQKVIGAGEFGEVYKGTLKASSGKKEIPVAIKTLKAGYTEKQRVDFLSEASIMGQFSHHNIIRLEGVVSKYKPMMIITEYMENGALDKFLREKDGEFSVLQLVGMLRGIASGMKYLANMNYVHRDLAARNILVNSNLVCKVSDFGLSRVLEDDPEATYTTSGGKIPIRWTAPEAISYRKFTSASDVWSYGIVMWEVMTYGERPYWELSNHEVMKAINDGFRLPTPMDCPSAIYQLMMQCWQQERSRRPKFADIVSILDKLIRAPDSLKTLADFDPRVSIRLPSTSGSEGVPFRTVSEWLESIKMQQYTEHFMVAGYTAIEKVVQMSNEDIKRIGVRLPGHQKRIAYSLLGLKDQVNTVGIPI
UniProt P29317, residues 24-976: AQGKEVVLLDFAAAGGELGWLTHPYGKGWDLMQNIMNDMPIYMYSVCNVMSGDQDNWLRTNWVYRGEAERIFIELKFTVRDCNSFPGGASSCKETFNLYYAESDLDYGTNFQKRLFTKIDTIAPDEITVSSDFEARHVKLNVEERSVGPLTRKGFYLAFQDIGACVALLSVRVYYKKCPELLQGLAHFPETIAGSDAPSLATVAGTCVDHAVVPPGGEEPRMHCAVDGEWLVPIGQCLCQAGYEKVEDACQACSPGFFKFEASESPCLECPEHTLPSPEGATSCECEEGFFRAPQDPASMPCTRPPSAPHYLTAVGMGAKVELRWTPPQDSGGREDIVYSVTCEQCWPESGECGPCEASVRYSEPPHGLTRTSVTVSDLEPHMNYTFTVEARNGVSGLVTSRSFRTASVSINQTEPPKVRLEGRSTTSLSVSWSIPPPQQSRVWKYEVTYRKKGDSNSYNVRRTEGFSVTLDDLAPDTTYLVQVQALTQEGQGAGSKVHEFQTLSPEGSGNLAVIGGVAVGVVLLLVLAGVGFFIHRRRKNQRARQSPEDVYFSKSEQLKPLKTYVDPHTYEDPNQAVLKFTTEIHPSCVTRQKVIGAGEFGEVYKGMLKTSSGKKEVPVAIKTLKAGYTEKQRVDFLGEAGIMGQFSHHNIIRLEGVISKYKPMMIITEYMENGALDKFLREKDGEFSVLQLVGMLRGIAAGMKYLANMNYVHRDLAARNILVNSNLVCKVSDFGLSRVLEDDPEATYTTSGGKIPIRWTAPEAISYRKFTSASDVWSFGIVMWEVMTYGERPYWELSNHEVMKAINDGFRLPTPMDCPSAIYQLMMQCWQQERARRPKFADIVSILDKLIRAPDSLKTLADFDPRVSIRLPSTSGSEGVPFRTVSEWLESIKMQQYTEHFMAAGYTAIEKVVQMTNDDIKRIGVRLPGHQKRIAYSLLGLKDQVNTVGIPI
UniProt P20827: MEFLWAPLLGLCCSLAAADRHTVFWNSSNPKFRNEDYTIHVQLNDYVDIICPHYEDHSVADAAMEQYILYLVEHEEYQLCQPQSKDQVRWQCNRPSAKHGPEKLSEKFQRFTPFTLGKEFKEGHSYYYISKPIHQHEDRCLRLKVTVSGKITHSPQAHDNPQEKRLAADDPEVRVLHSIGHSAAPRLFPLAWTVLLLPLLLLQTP

binding [1]: binds
binding [2]: binds
binding [3]: binds
Substance: ephrin-A1-Fc (ephrin-A1 fused to the heavy chain of human IgG1) (from UniProt P20827 19-182) (Fc fusion)

From patent US20090247540A1 (published 2009)
